{"sequences": {"note": "The chains behind the UniProt entries cited, without tags or fusion partners. Where a name states a change or a piece, a line headed by the entry shows the natural chain unless it says otherwise.", "UniProt Q6P5Z2": "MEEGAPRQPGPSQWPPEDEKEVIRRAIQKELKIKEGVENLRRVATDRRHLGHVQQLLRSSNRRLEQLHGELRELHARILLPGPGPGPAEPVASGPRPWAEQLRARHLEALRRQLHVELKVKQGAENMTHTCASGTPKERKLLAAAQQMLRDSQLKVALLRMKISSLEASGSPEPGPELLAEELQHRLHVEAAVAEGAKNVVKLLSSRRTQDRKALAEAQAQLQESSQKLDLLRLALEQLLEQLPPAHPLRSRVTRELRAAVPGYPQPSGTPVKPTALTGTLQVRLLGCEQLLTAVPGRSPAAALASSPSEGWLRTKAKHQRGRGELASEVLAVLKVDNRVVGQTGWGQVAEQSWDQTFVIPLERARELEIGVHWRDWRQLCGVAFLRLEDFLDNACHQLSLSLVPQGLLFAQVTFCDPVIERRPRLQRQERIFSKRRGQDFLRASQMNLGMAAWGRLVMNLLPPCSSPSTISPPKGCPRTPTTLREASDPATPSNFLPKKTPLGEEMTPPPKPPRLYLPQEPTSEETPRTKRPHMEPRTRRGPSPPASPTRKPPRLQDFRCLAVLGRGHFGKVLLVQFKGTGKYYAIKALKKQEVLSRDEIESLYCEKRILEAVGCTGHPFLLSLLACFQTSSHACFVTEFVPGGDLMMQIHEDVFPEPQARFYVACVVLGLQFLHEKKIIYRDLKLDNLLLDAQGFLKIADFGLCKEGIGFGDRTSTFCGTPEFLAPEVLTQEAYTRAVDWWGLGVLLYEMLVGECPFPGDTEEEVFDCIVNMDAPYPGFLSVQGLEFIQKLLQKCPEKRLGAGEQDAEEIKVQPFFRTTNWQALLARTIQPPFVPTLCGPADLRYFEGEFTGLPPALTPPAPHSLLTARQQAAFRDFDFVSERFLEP", "UniProt P61586": "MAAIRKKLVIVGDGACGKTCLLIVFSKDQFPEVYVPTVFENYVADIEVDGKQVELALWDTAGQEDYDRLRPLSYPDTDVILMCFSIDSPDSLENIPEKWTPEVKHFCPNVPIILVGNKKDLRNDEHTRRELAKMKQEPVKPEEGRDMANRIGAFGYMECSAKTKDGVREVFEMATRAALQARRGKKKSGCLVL"}, "source": "paper PMC7594087", "molecules": {"B1": {"name": "GFP-ARHGAP18 WT (Rho GTPase Activating Protein 18, isoform 1, full-length) (protein, UniProt Q8N392 1-663)", "chain": "MSWLSSSQGVVLTAYHPSGKDQTVGNSHAKAGEEATSSRRYGQYTMNQESTTIKVMEKPPFDRSISQDSLDELSMEDYWIELENIKKSSENSQEDQEVVVVKEPDEGELEEEWLKEAGLSNLFGESAGDPQESIVFLSTLTRTQAAAVQKRVETVSQTLRKKNKQYQIPDVRDIFAQQRESKETAPGGTESQSLRTNENKYQGRDDEASNLVGEEKLIPPEETPAPETDINLEVSFAEQALNQKESSKEKIQKSKGDDATLPSFRLPKDKTGTTRIGDLAPQDMKKVCHLALIELTALYDVLGIELKQQKAVKIKTKDSGLFCVPLTALLEQDQRKVPGMRIPLIFQKLISRIEERGLETEGLLRIPGAAIRIKNLCQELEAKFYEGTFNWESVKQHDAASLLKLFIRELPQPLLSVEYLKAFQAVQNLPTKKQQLQALNLLVILLPDANRDTLKALLEFLQRVIDNKEKNKMTVMNVAMVMAPNLFMCHALGLKSSEQREFVMAAGTANTMHLLIKYQKLLWTIPKFIVNQVRKQNTENHKKDKRAMKKLLKKMAYDREKYEKQDKSTNDADVPQGVIRVQAPHLSKVSMAIQLTEELKASDVLARFLSQESGVAQTLKKGEVFLYEIGGNIGERCLDDDTYMKDLYQLNPNAEWVIKSKPL"}, "B2": {"name": "GFP-ARHGAP18 Δ201-323 (protein, UniProt Q8N392)", "chain": "MSWLSSSQGVVLTAYHPSGKDQTVGNSHAKAGEEATSSRRYGQYTMNQESTTIKVMEKPPFDRSISQDSLDELSMEDYWIELENIKKSSENSQEDQEVVVVKEPDEGELEEEWLKEAGLSNLFGESAGDPQESIVFLSTLTRTQAAAVQKRVETVSQTLRKKNKQYQIPDVRDIFAQQRESKETAPGGTESQSLRTNENKVPLTALLEQDQRKVPGMRIPLIFQKLISRIEERGLETEGLLRIPGAAIRIKNLCQELEAKFYEGTFNWESVKQHDAASLLKLFIRELPQPLLSVEYLKAFQAVQNLPTKKQQLQALNLLVILLPDANRDTLKALLEFLQRVIDNKEKNKMTVMNVAMVMAPNLFMCHALGLKSSEQREFVMAAGTANTMHLLIKYQKLLWTIPKFIVNQVRKQNTENHKKDKRAMKKLLKKMAYDREKYEKQDKSTNDADVPQGVIRVQAPHLSKVSMAIQLTEELKASDVLARFLSQESGVAQTLKKGEVFLYEIGGNIGERCLDDDTYMKDLYQLNPNAEWVIKSKPL"}, "B3": {"name": "GFP-ARHGAP18 N200 (domain or fragment, UniProt Q8N392 1-200)", "chain": "MSWLSSSQGVVLTAYHPSGKDQTVGNSHAKAGEEATSSRRYGQYTMNQESTTIKVMEKPPFDRSISQDSLDELSMEDYWIELENIKKSSENSQEDQEVVVVKEPDEGELEEEWLKEAGLSNLFGESAGDPQESIVFLSTLTRTQAAAVQKRVETVSQTLRKKNKQYQIPDVRDIFAQQRESKETAPGGTESQSLRTNENK"}, "B4": {"name": "GFP-ARHGAP18 N200 Δ1–12 (domain or fragment, UniProt Q8N392 13-200)", "chain": "TAYHPSGKDQTVGNSHAKAGEEATSSRRYGQYTMNQESTTIKVMEKPPFDRSISQDSLDELSMEDYWIELENIKKSSENSQEDQEVVVVKEPDEGELEEEWLKEAGLSNLFGESAGDPQESIVFLSTLTRTQAAAVQKRVETVSQTLRKKNKQYQIPDVRDIFAQQRESKETAPGGTESQSLRTNENK"}, "B5": {"name": "GFP-ARHGAP18 N200 Δ13–25 (domain or fragment, UniProt Q8N392)", "chain": "MSWLSSSQGVVLNSHAKAGEEATSSRRYGQYTMNQESTTIKVMEKPPFDRSISQDSLDELSMEDYWIELENIKKSSENSQEDQEVVVVKEPDEGELEEEWLKEAGLSNLFGESAGDPQESIVFLSTLTRTQAAAVQKRVETVSQTLRKKNKQYQIPDVRDIFAQQRESKETAPGGTESQSLRTNENK"}, "B6": {"name": "GFP-ARHGAP18 Iso2 WT (isoform 2) (protein, UniProt Q8N392 46-663)", "chain": "MNQESTTIKVMEKPPFDRSISQDSLDELSMEDYWIELENIKKSSENSQEDQEVVVVKEPDEGELEEEWLKEAGLSNLFGESAGDPQESIVFLSTLTRTQAAAVQKRVETVSQTLRKKNKQYQIPDVRDIFAQQRESKETAPGGTESQSLRTNENKYQGRDDEASNLVGEEKLIPPEETPAPETDINLEVSFAEQALNQKESSKEKIQKSKGDDATLPSFRLPKDKTGTTRIGDLAPQDMKKVCHLALIELTALYDVLGIELKQQKAVKIKTKDSGLFCVPLTALLEQDQRKVPGMRIPLIFQKLISRIEERGLETEGLLRIPGAAIRIKNLCQELEAKFYEGTFNWESVKQHDAASLLKLFIRELPQPLLSVEYLKAFQAVQNLPTKKQQLQALNLLVILLPDANRDTLKALLEFLQRVIDNKEKNKMTVMNVAMVMAPNLFMCHALGLKSSEQREFVMAAGTANTMHLLIKYQKLLWTIPKFIVNQVRKQNTENHKKDKRAMKKLLKKMAYDREKYEKQDKSTNDADVPQGVIRVQAPHLSKVSMAIQLTEELKASDVLARFLSQESGVAQTLKKGEVFLYEIGGNIGERCLDDDTYMKDLYQLNPNAEWVIKSKPL"}, "B7": {"name": "GFP-ARHGAP18 TST-DDD (phosphomimicking mutant) (protein, UniProt Q8N392 1-663)", "chain": "B1 chain with T154D, S156D, T158D"}, "B8": {"name": "GFP-ARHGAP18 Iso2 TST-DDD (protein, UniProt Q8N392 46-663)", "chain": "B6 chain with T109D, S111D, T113D"}}, "note": "Substitutions are numbered along the chain they refer to. Results are given in words; binding and its absence hold for the method and conditions named. In cells and extracts the contact can be indirect. Some binding calls cover weakened binding; strength is not graded here. Sequences can lack the tags named with a protein.", "data": [{"molecular_target": "T1, GST-ARHGAP18 N50 (human) (UniProt Q8N392)", "T1 sequence": "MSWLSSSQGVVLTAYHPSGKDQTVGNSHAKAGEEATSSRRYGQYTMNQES", "assay": "pull-down; GST only or GST-ARHGAP18 N50 as bait, GFP-PKN3 detected by immunoblot; GST-fused proteins stained with Ponceau S; only the target purified", "values": [{"molecule": "GFP-PKN3 (from UniProt Q6P5Z2 1-889) (enzyme)", "binding": "binds"}]}, {"molecular_target": "Flag-PKN3 WT (protein kinase N3) (human) (UniProt Q6P5Z2)", "assay": "co-IP; Flag-PKN3 precipitated with Anti-Flag Affinity Gel from lysates of transfected MDA-MB-231 cells (1% Triton X-100 in TBS, 50 mM Tris-HCl pH 7.1, 150 mM NaCl), 3 h, 4 °C; GFP-ARHGAP18 variants detected by immunoblot", "values": [{"molecule": "B1", "binding": "binds"}, {"molecule": "B2", "binding": "binds"}, {"molecule": "B3", "binding": "binds"}, {"molecule": "B4", "binding": "binds weakly"}, {"molecule": "B5", "binding": "binds weakly"}, {"molecule": "B6", "binding": "binds weakly"}]}, {"molecular_target": "GST-RhoA CA (G14V), constitutively active RhoA (UniProt P61586)", "assay": "pull-down; agarose-bound GST-RhoA CA (G14V), 15 μg, added to lysates of cells transfected with GFP-ARHGAP18 variants (HBS, 1% Triton X-100, 5 mM MgCl2, 1 mM DTT), 1 h, 4 °C; lysates equalized for GFP signal; only the target purified", "values": [{"molecule": "B7", "binding": "binds"}, {"molecule": "B8", "binding": "binds"}]}]}
